{"sequences": {"note": "Chains of the proteins cited; added tags and fusions are not shown.", "UniProt P07355": "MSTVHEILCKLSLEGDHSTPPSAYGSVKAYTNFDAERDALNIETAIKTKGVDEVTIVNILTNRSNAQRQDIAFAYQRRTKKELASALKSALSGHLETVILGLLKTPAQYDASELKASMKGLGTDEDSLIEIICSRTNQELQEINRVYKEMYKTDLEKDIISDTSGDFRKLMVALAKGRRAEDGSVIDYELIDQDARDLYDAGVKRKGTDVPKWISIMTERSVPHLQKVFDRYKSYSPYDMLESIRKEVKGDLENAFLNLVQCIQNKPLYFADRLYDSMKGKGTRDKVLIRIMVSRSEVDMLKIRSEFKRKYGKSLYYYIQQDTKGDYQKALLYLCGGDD"}, "source": "paper PMC12666673", "biological_target": "T1, V-set and immunoglobulin domain containing 2 (VSIG2) (human (endogenous in AGS)) (UniProt Q96IQ7)", "T1 sequence": "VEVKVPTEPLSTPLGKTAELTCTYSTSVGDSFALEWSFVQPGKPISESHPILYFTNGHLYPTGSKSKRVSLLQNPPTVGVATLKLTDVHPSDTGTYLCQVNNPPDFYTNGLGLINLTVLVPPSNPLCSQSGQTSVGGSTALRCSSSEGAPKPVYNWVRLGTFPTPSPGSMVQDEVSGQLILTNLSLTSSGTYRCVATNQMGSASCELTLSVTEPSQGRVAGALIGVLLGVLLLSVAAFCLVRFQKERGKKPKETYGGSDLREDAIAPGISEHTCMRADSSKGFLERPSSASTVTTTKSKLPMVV", "experiment": "affinity purification with mass spectrometry; AGS cell protein precipitated with the VSIG2 antibody, then LC-MS/MS", "note": "No constants are given. Whether binding was seen depends on the method and setting. In cells and extracts the contact can be indirect. These calls come from enrichment with a bait or labelling near it, and not all partners need be listed.", "data": [{"substance": "ANXA2 (from UniProt P07355 1-339)", "values": [{"measurement": "binding", "result": "binds"}]}]}
